PubChem BioAssay AID1259254 – NCATS, 2017

Test: 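Genome-wide screen for genes that prevent DNA re-replication in cancer cells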 (primary screen)
Cell system: human HCT116 colorectal cancer cells
Reagent: single siRNA against human genes
Time to read-out: 3 days
Measured: 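Nuclei stained with Hoechst and imaged; cell-cycle phase assigned by DNA content; G2 share scaled per plate, non-targeting siRNA 0%, GMNN siRNA 100%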
Reading the numbers: G2 robust z-score and G2 cells, % of GMNN control: higher = more G2 cells, more excess DNA replication
Call rule: 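Active siRNAs have a G2 robust z of 5 or more median absolute deviations over the median, which in these data means about 38% or higher of GMNN control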
This is a random part of about 59,000 reagents tested. About 1,550 of all reagents (2.6%) count as active. 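G2 share is only a proxy for re-replication; each gene was hit by three separate siRNAs, and active genes were retested.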 Reagents against one gene are numbered here. Further read-outs or replicates are left out here. Not stated in the record: the amount of reagent.

How did the screen score DYNLT3 (dynein light chain Tctex-type 3) #1?
G2 robust z-score: 0.164; G2 cells, % of GMNN control: 4.12; activity call: inactive

How did the screen score DYNLT3 (dynein light chain Tctex-type 3) #2?
G2 robust z-score: -0.137; G2 cells, % of GMNN control: 2; activity call: inactive

For DYNLT3 (dynein light chain Tctex-type 3) #3, what was measured?
G2 robust z-score: 0.681; G2 cells, % of GMNN control: 7.76; activity call: inactive

With CCDC192 (coiled-coil domain containing 192) #1, how do the results read?
G2 robust z-score: -0.291; G2 cells, % of GMNN control: 0.92; activity call: inactive

How did the screen score CCDC192 (coiled-coil domain containing 192) #2?
G2 robust z-score: 4.97; G2 cells, % of GMNN control: 37.9; activity call: inactive

How did the screen score CCDC192 (coiled-coil domain containing 192) #3?
G2 robust z-score: 0.759; G2 cells, % of GMNN control: 8.31; activity call: inactive

What did the screen give for PATZ1 (POZ/BTB and AT hook containing zinc finger 1) #1?
G2 robust z-score: -0.944; G2 cells, % of GMNN control: -3.68; activity call: inactive

What did the screen give for PATZ1 (POZ/BTB and AT hook containing zinc finger 1) #2?
G2 robust z-score: 0.0964; G2 cells, % of GMNN control: 3.65; activity call: inactive

Which result is listed for PATZ1 (POZ/BTB and AT hook containing zinc finger 1) #3?
G2 robust z-score: -0.0831; G2 cells, % of GMNN control: 2.38; activity call: inactive

With FOXE3 (forkhead box E3) #1, how do the results read?
G2 robust z-score: -0.855; G2 cells, % of GMNN control: -3.05; activity call: inactive

For FOXE3 (forkhead box E3) #2, how do the results read?
G2 robust z-score: 0.575; G2 cells, % of GMNN control: 7.02; activity call: inactive

How did the screen score FOXE3 (forkhead box E3) #3?
G2 robust z-score: -1.43; G2 cells, % of GMNN control: -7.08; activity call: inactive

For CDKN2AIP (CDKN2A interacting protein) #1, what was measured?
G2 robust z-score: 1.08; G2 cells, % of GMNN control: 10.6; activity call: inactive

With CDKN2AIP (CDKN2A interacting protein) #2, what was measured?
G2 robust z-score: -0.509; G2 cells, % of GMNN control: -0.612; activity call: inactive

With CDKN2AIP (CDKN2A interacting protein) #3, what was measured?
G2 robust z-score: -1.1; G2 cells, % of GMNN control: -4.77; activity call: inactive

What is on record for HFM1 (helicase for meiosis 1) #1?
G2 robust z-score: -1.1; G2 cells, % of GMNN control: -4.75; activity call: inactive

For HFM1 (helicase for meiosis 1) #2, how do the results read?
G2 robust z-score: -0.389; G2 cells, % of GMNN control: 0.234; activity call: inactive

With HFM1 (helicase for meiosis 1) #3, what does the deposit list?
G2 robust z-score: -0.0946; G2 cells, % of GMNN control: 2.3; activity call: inactive

For UBXN2A (UBX domain protein 2A) #1, what does the deposit list?
G2 robust z-score: -0.116; G2 cells, % of GMNN control: 2.15; activity call: inactive

With UBXN2A (UBX domain protein 2A) #2, what does the deposit list?
G2 robust z-score: -0.476; G2 cells, % of GMNN control: -0.382; activity call: inactive

With UBXN2A (UBX domain protein 2A) #3, what does the deposit list?
G2 robust z-score: 0.0366; G2 cells, % of GMNN control: 3.22; activity call: inactive

With MRPL46 (mitochondrial ribosomal protein L46) #1, what does the deposit list?
G2 robust z-score: -1.29; G2 cells, % of GMNN control: -6.14; activity call: inactive

How did the screen score MRPL46 (mitochondrial ribosomal protein L46) #2?
G2 robust z-score: -0.7; G2 cells, % of GMNN control: -1.96; activity call: inactive

For MRPL46 (mitochondrial ribosomal protein L46) #3, what does the deposit list?
G2 robust z-score: -0.911; G2 cells, % of GMNN control: -3.44; activity call: inactive

What did the screen give for PCNP (PEST proteolytic signal containing nuclear protein) #1?
G2 robust z-score: -1; G2 cells, % of GMNN control: -4.1; activity call: inactive

For PCNP (PEST proteolytic signal containing nuclear protein) #2, what was measured?
G2 robust z-score: -0.572; G2 cells, % of GMNN control: -1.06; activity call: inactive

What is on record for PCNP (PEST proteolytic signal containing nuclear protein) #3?
G2 robust z-score: 0.908; G2 cells, % of GMNN control: 9.36; activity call: inactive

What is on record for CYP2A7 (cytochrome P450 family 2 subfamily A member 7) #1?
G2 robust z-score: 2.19; G2 cells, % of GMNN control: 18.4; activity call: inactive

With CYP2A7 (cytochrome P450 family 2 subfamily A member 7) #2, what was measured?
G2 robust z-score: -0.348; G2 cells, % of GMNN control: 0.516; activity call: inactive

For CYP2A7 (cytochrome P450 family 2 subfamily A member 7) #3, what was measured?
G2 robust z-score: 2.84; G2 cells, % of GMNN control: 23; activity call: inactive

Not a retest: 4 of the entries above.
DYNLT3 (dynein light chain Tctex-type 3) #3: G2 robust z-score = 0.681; G2 cells, % of GMNN control = 7.76; activity call = inactive
CCDC192 (coiled-coil domain containing 192) #1: G2 robust z-score = -0.291; G2 cells, % of GMNN control = 0.92; activity call = inactive
CCDC192 (coiled-coil domain containing 192) #2: G2 robust z-score = 4.97; G2 cells, % of GMNN control = 37.9; activity call = inactive
CCDC192 (coiled-coil domain containing 192) #3: G2 robust z-score = 0.759; G2 cells, % of GMNN control = 8.31; activity call = inactive
